Experimental data published in US20230203098A1, “HUMAN TRANSFERRIN RECEPTOR BINDING PEPTIDE” (priority 2020, published 2023).
No constants are given. Whether binding was seen depends on the method and setting. Some results given as binding are weak or reduced against the parent protein; the word gives no strength.

Target: human transferrin receptor (hTfR) (human) (UniProt P02786)
Assay: SPR; grade B: KD >=1 nM, <100 nM

Binder	binding
AVWVWNYFIIPRHC (C-term PEG11-K-FITC; cyclic 1-14 thioether) [JCR_hTfR_000837_PEG11_K(FITC)]	binds
AVFVWNYYIVPRDC (C-term PEG11-K-FITC; cyclic 1-14 thioether) [JCR_hTfR_000692_PEG11_K(FITC)]	binds
AVFVWNYYIVPRWC (13 MeW; C-term PEG11-K-FITC; cyclic 1-14 thioether) [JCR_hTfR_100016_PEG11_K(FITC)]	binds
AVFVWNYYIVPREC (C-term PEG11-K-FITC; cyclic 1-14 thioether) [JCR_hTfR_100019_PEG11_K(FITC)]	binds
AVFVWNYYIVPRNC (C-term PEG11-K-FITC; cyclic 1-14 thioether) [JCR_hTfR_000687_PEG11_K(FITC)]	binds
EVFVWNYYIIRRYYC (14 MeY; C-term PEG12-Hydrazide; cyclic 1-15 thioether) [hTfR_894_E1_PEG12_(Hydrazide)]	binds
AEFVWNYYIIRRYYC (14 MeY; cyclic 1-15 thioether) [JCR_hTfR_000894_E2]	binds
AVFVWNYYIYRRYYC (3 MePhe; 14 MeTyr; C-term PEG12c; cyclic 1-15 thioether) [894_3m_10Y]	binds
ARFVWNYYIIRRYYC (14 MeY; cyclic 1-15 thioether) [JCR_hTfR_000894_R2]	binds
AKFVWNYYIIRRYYC (14 MeY; cyclic 1-15 thioether) [JCR_hTfR_000894_K2]	binds
AVFVWNYYIERRYYC (14 MeY; cyclic 1-15 thioether) [JCR_hTfR_000894_E10]	binds
AVFVWNYYIRRRYYC (14 MeY; cyclic 1-15 thioether) [JCR_hTfR_000894_R10]	binds
AVFVWNYYIIERYYC (14 MeY; cyclic 1-15 thioether) [JCR_hTfR_000894_E11_Re180111]	binds
AVFVWNYYIIARYYC (14 MeY; cyclic 1-15 thioether) [JCR_hTfR_000894_A11]	binds
AVFVWNYYIIKRYYC (11 MeK; 14 MeY; cyclic 1-15 thioether) [JCR_hTfR_000894_11MeK]	binds
AVFVWNYYIIRRYAC (3 MePhe; C-term PEG12c; cyclic 1-15 thioether) [894_3m_14A]	binds
AVFVWNYYIIRAYYC (14 MeY; cyclic 1-15 thioether) [JCR_hTfR_000894_A12]	binds
AVFVWNYYIIREYYC (14 MeY; cyclic 1-15 thioether) [JCR_hTfR_000894_E12_Re180111]	binds
AVFVWNYYIIRKYYC (14 MeY; cyclic 1-15 thioether) [JCR_hTfR_000894_K12]	binds
AVFVWNYYIIRREYC (14 MeY; cyclic 1-15 thioether) [JCR_hTfR_000894_E13]	binds
AVFVWNYYIIRRRYC (14 MeY; cyclic 1-15 thioether) [JCR_hTfR_000894_R13]	binds
AVFVWNYYIIRRKYC (14 MeY; cyclic 1-15 thioether) [JCR_hTfR_000894_K13]	binds
AVFVWNYYIIRRYYC (3 MePhe; 8 MeTyr; 14 MeTyr; C-term PEG12c; cyclic 1-15 thioether) [894_3m_8m]	binds
AVFVWNYYIIARYYC (3 MeF; 14 MeY; C-term de; cyclic 1-15 thioether) [894_variant_097]	binds

Binder	binding
AVFVWNYYIIKRYYC (3 MeF; 11 MeK; 14 MeY; cyclic 1-15 thioether) [JCR__hTfR_000894_3Me_11MeK]	binds
AVFVWNYYIIKRYYC (3 MeF; 14 MeY; cyclic 1-15 thioether) [JCR_hTfR_000894_3MeF_11K]	binds
AVFVWNYYIIYRYYC (3 MePhe; 14 MeTyr; C-term PEG12c; cyclic 1-15 thioether) [894_3m_11Y]	binds
AVFVWNYYIIRRYYC (3 MeF; 14 MeY; cyclic 1-15 thioether) [894_v01]	binds
AVFVWNYYIIRRYYC (3 MeF; 14 MeY; C-term G-KN3; cyclic 1-15 thioether) [894_3m_G_Azi_Re200923]	binds
AVFVWNYYIIRRYYC (3 MeF; 14 MeY; C-term MeG-MeG-MeG; cyclic 1-15 thioether) [894_3m_MeG3]	binds
AVFVWNYYIIRRYYC (3 MeF; 5 MeW; 14 MeY; cyclic 1-15 thioether) [894_v03]	binds
AVFVWNYYIIKRYYC (3 MeF; 5 MeW; 14 MeY; cyclic 1-15 thioether) [JCR_hTfR_000894_3MeF_5meW_11K]	binds
AVFVWNYYIIRRAYC (3 MePhe; 14 MeTyr; C-term PEG12c; cyclic 1-15 thioether) [894_3m_13A]	binds
AVFVWNWYIIRRYYC (3 MePhe; 14 MeTyr; C-term PEG12c; cyclic 1-15 thioether) [894_3m_7W]	binds
AVFVWNYYIIRRYRC (3 MePhe; C-term PEG12c; cyclic 1-15 thioether) [894_3m_14R]	binds
AVFVWNYYIARRYYC (3 MePhe; 14 MeTyr; C-term PEG12c; cyclic 1-15 thioether) [894_3m_10A]	binds
GVFVWNYYIIRRYYC (3 MePhe; 14 MeTyr; C-term PEG12c; cyclic 1-15 thioether) [894 _3m _1G]	binds
SVFVWNYYIIRRYYC (3 MePhe; 14 MeTyr; C-term PEG12c; cyclic 1-15 thioether) [894 _3m _1S]	binds
AFFVWNYYIIRRYYC (3 MePhe; 14 MeTyr; C-term PEG12c; cyclic 1-15 thioether) [894_3m_2F]	binds
AVFVWNYYIIRRYYC (3 MeF; 14 MeY; C-term PEG12c; cyclic 1-15 thioether) [894_v01_PEG12]	binds
AVFVWNYYIIRRYYC (3 MeF; 14 MeY; C-term G-OH; cyclic 1-15 thioether) [894_3m_G]	binds
AVFVWNYYIIRRYYC (3 MeF; 14 MeY; C-term G-de-de-de-S-S-C(AcNMe); cyclic 1-15 thioether) [894_3m_GLinker4(AcNMe)]	binds
AVFVWDYYIIRRYYC (3 MePhe; 14 MeTyr; C-term PEG12c; cyclic 1-15 thioether) [894_3m_6D]	binds
AVFVWNYYIIRRYYC (3 MeF; 14 MeY; C-term G-de-de-G-S-S-C(AcNMe); cyclic 1-15 thioether) [894_3m_GLinker5(AcNMe)]	binds
AVFVWNYYIIRRYYC (3 MeF; 14 MeY; C-term G-KCOmeglumine-G-G-S-S-C(AcNMe); cyclic 1-15 thioether) [894_3m _GLinker7(AcNMe)]	binds
AVFVWNYYIIRRYYC (3 MeF; 14 MeY; C-term G-KCOpipzaa-G-de-S-S-C(AcNMe); cyclic 1-15 thioether) [894_3m_GLinker8(AcNMe)]	binds
AVFVWNYYIIRRYYC (3 MeF; 14 MeY; C-term G-G-KCOpipzaa-de-S-S-C(AcNMe); cyclic 1-15 thioether) [894_3m_GLinker9(AcNMe)]	binds
AVFVWNYYIIRRYYC (3 MeF; 14 MeY; C-term G-KCOpipzaa-G-G-S-S-C(AcNMe); cyclic 1-15 thioether) [894_3m_GLinker10(AcNMe)]	binds

Binder	binding
AVFVWNYYIIRRYYC (3 MeF; 14 MeY; C-term G-G-KCOpipzaa-G-S-S-C(AcNMe); cyclic 1-15 thioether) [894_3m_GLinker11(AcNMe)]	binds
AVFVWNYYIIRRYYC (3 MeF; 14 MeY; C-term G-G-G-KCOpipzaa-S-S-C(AcNMe); cyclic 1-15 thioether) [894_3m_GLinker12(AcNMe)]	binds
AVFVWNYYIIRRYYC (3 MeF; 14 MeY; C-term G-KCOmeglumine-G-de-S-S-C(AcNMe); cyclic 1-15 thioether) [894_3m_GLinker13(AcNMe)]	binds
AVFVWNYYIIRRYYC (3 MeF; 14 MeY; C-term G-G-KCOmeglumine-de-S-S-C(AcNMe); cyclic 1-15 thioether) [894_3m_GLinker14(AcNMe)]	binds
AVFVWNYYIIRRYYC (3 MeF; 14 MeY; C-term G-de-G-KCOpipzaa-S-S-C(AcNMe); cyclic 1-15 thioether) [894_3m_GLinker15(AcNMe)]	binds
AVFVWNFYIIRRYYC (3 MePhe; 14 MeTyr; C-term PEG12c; cyclic 1-15 thioether) [894_3m_7F]	binds
AVFVWNYYIIRRYYC (3 MeF; 14 MeY; C-term G-G-de-KCOpipzaa-S-S-C(AcNMe); cyclic 1-15 thioether) [894_3m_GLinker16(AcNMe)]	binds
AVFVWNYYIIRRYYC (3 MeF; 14 MeY; C-term G-de-G-KCOmeglumine-S-S-C(AcNMe); cyclic 1-15 thioether) [894_3m_GLinker17(AcNMe)]	binds
AVFVWNYYIIRRYYC (3 MeF; 14 MeY; C-term G-G-de-KCOmeglumine-S-S-C(AcNMe); cyclic 1-15 thioether) [894_3m_GLinker18(AcNMe)]	binds
AVFVWNYYIIRRYYC (3 MeF; 14 MeY; C-term G-G-KCOmeglumine-G-S-S-C(AcNMe); cyclic 1-15 thioether) [894_3m_GLinker19(AcNMe)]	binds
AVFVWNYYIIRRYYC (3 MeF; 14 MeY; C-term G-G-G-KCOmeglumine-S-S-C(AcNMe); cyclic 1-15 thioether) [894_3m_GLinker20(AcNMe)]	binds
AVFVWNYYIIRRYYC (3 MeF; 14 MeY; C-term G-KCOpipzaa-de-de-S-S-C(AcNMe); cyclic 1-15 thioether) [894_3m_GLinker21(AcNMe)]	binds
AVFVWNYYIIRRYYC (3 MeF; 14 MeY; C-term G-de-KCOpipzaa-de-S-S-C(AcNMe); cyclic 1-15 thioether) [894_3m_GLinker22(AcNMe)]	binds
AVFVWNYYIIRRYYC (3 MeF; 14 MeY; C-term G-G-G-G-S-S-C(AcNMe); cyclic 1-15 thioether) [894_3m_G4S2C(AcNMe)]	binds
AVFVWNYYIIRRYYC (3 MeF; 14 MeY; C-term G-de-de-de-G-dk; cyclic 1-15 thioether) [894_var.184]	binds
AVFVWNYYIIRRYYC (3 MeF; 14 MeY; C-term G-de-KCOpipzaa-de-G-dk; cyclic 1-15 thioether) [894_var.185]	binds
AVFVWNAYIIRRYYC (3 MePhe; 14 MeTyr; C-term PEG12c; cyclic 1-15 thioether) [894_3m_7A]	binds
AVFVWNYYIIRRYYC (3 MeF; 14 MeY; C-term G-KN3; cyclic (cell for position 15 blank in the table)) [894_3m_G_Azi]	binds
AVFVWNYYIIRRYYC (3 MeF; 14 MeY; C-term G-PEG4c-KN3; cyclic 1-15 thioether) [894_3rn_G_short_Azi]	binds
AVFVWNYYIIRRYYC (3 MeF; 14 MeY; C-term G-PEG12c-KN3; cyclic 1-15 thioether) [894_3m_G_long_Azi]	binds
AVFVWNYYIIRRYYC (3 MeF; 14 MeY; C-term G-de-de-de-de-S-C(AcNMe); cyclic 1-15 thioether) [894_3rn_GLinker24]	binds
AVFVWNYYIIRRYYC (3 MeF; 14 MeY; C-term G-G-G-S-G-S-G-dk(Maleimide); cyclic 1-15 thioether) [894_3rn_Linke01_dk(Mal)]	binds
AVFVWNYYIIRRYYC (3 MeF; 14 MeY; C-term G-G-G-de-G-de-G-dk(Maleimide); cyclic 1-15 thioether) [894_3rn_Linke03_dk(Mal)]	binds
AVFVWNYYIIRRYYC (3 MeF; 14 MeY; C-term G-K; cyclic 1-15 thioether) [894_variant_218]	binds
